Experimental data: PubChem BioAssay AID256 (DTP/NCI, 2004)
The list does not hold the whole screen: it gathers tests that were run many times, whatever their T/C, doses with no T/C, and many T/C values between a quarter and a half above the control. Other doses and runs of a compound stand elsewhere. T/C is the treated group as % of the vehicle group. Some doses have a count of surviving animals in place of a T/C: the source holds a T/C of zero for them, seemingly a mark for toxic or unscored doses. Some doses without a T/C left all or most animals alive at the check, yet need not have been tolerated: survival well below the control is almost never listed, so the zero probably covers shortened survival too. Counts of survivors are from the toxicity check (mostly the fifth day) where no day follows; animals may have died later. Schedule codes are those of the source, taken here to give the interval after Q, in days (D) or hours (H), and the number of doses after X. For survival time, the PubChem record calls one and a half times the control and up active, and a quarter to a half above the control has no call in these data; cut-offs in other NCI protocols can differ. Some entries were tested several times; the results are listed from low to high. Some T/C values carry the count of animals alive at the toxicity check (mostly the fifth day); without a count, all were alive then.

Test system: CD2F1 mice, L1210 leukemia ip, survival T/C
Assay: NCI In Vivo Anticancer Drug Screen. Data for tumor model L1210 Leukemia (intraperitoneal) in CD2F1 (CDF1) mice
Settings: higher T/C = longer survival
Method in brief: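 Tumor-bearing mice (transplanted tumor) were split into treated and vehicle control groups, and the measured endpoint of each treated group was divided by that of its vehicle controls.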

[1] = T/C endpoint: mean survival time, dose: 100.0 mg/kg/injection, schedule: Q01DX001 (ip), vehicle: saline with Tween-80
[2] = T/C endpoint: mean survival time, dose: 400.0 mg/kg/injection, schedule: Q01DX001 (ip), vehicle: saline with Tween-80
[3] = T/C endpoint: mean survival time, dose: 200.0 mg/kg/injection, schedule: Q01DX001 (ip), vehicle: saline with Tween-80
[4] = T/C endpoint: mean survival time, dose: 400.0 mg/kg/injection, schedule: Q04DX003 (ip), vehicle: saline with Tween-80

What does the source list for `COc1cccc2c1C(=O)c1c(O)c3c(c(O)c1C2=O)C[C@@](O)(/C(C)=N/NC(=O)c1ccccc1)C[C@@H]3OC1CC(N)C(O)C(C)O1` (stereo not given in full)?
T/C (T/C endpoint: mean survival time, dose: 1.8 mg/kg/injection, schedule: Q01DX009 (ip), vehicle: saline): 135 % of control; T/C (T/C endpoint: mean survival time, dose: 5.0 mg/kg/injection, schedule: Q01DX009 (ip), vehicle: saline): 134 % of control; T/C (T/C endpoint: mean survival time, dose: 8.0 mg/kg/injection, schedule: Q01DX009 (ip), vehicle: water): 131 % of control; T/C (T/C endpoint: mean survival time, dose: 8.0 mg/kg/injection, schedule: Q04DX003 (ip), vehicle: saline): 148 % of control; T/C (T/C endpoint: mean survival time, dose: 13.3 mg/kg/injection, schedule: Q04DX003 (ip), vehicle: saline): 136 % of control; survivor count (T/C endpoint: mean survival time, dose: 16.0 mg/kg/injection, schedule: Q01DX009 (ip), vehicle: water): 6 of 6; survivor count (T/C endpoint: mean survival time, dose: 16.0 mg/kg/injection, schedule: Q04DX003 (ip), vehicle: water): 6 of 6; T/C (T/C endpoint: median survival time, dose: 1.0 mg/kg/injection, schedule: Q03HX024 (ip), vehicle: water): 130 % of control; T/C (T/C endpoint: median survival time, dose: 2.0 mg/kg/injection, schedule: Q03HX008 (ip), vehicle: water): 130 % of control; T/C (T/C endpoint: median survival time, dose: 2.0 mg/kg/injection, schedule: Q03HX016 (ip), vehicle: water): 129 % of control; T/C (T/C endpoint: median survival time, dose: 2.0 mg/kg/injection, schedule: Q03HX024 (ip), vehicle: water): 140 % of control [9 of 10 alive]; T/C (T/C endpoint: median survival time, dose: 4.0 mg/kg/injection, schedule: Q01DX009 (ip), vehicle: water): 127 % of control; T/C (T/C endpoint: median survival time, dose: 4.0 mg/kg/injection, schedule: Q03HX008 (ip), vehicle: water): 132 % of control; T/C (T/C endpoint: median survival time, dose: 4.0 mg/kg/injection, schedule: Q04DX003 (ip), vehicle: water): 126 % of control; T/C (T/C endpoint: median survival time, dose: 8.0 mg/kg/injection, schedule: Q01DX009 (ip), vehicle: water): 141 % of control; T/C (T/C endpoint: median survival time, dose: 8.0 mg/kg/injection, schedule: Q04DX003 (ip), vehicle: water): 130 and 145 % of control; T/C (T/C endpoint: median survival time, dose: 16.0 mg/kg/injection, schedule: Q01DX001 (ip), vehicle: water): 132 % of control; survivor count (T/C endpoint: median survival time, dose: 16.0 mg/kg/injection, schedule: Q01DX009 (ip), vehicle: water): 9 of 10; T/C (T/C endpoint: median survival time, dose: 16.0 mg/kg/injection, schedule: Q04DX003 (ip), vehicle: water): 147 % of control; T/C (T/C endpoint: median survival time, dose: 16.0 mg/kg/injection, schedule: Q08DX002 (ip), vehicle: water): 133 % of control; survivor count (T/C endpoint: median survival time, dose: 32.0 mg/kg/injection, schedule: Q01DX009 (oral), vehicle: water): 5 of 10; T/C (T/C endpoint: median survival time, dose: 32.0 mg/kg/injection, schedule: Q08DX002 (ip), vehicle: water): 147 % of control [9 of 10 alive]; survivor count (T/C endpoint: median survival time, dose: 64.0 mg/kg/injection, schedule: Q01DX009 (oral), vehicle: water): 6 of 10

Which results are given for `O=C1/C(=C\c2ccc(Cl)cc2)SC(=S)N1/N=C/c1ccc(Cl)cc1`?
survivor count [1]: 3 of 3; survivor count [2]: 3 of 3

How did the survivor count (T/C endpoint: mean survival time, dose: 100.0 mg/kg/injection, schedule: Q01DX001 (ip), vehicle: carboxymethylcellulose (CMC)) turn out when `N=c1c2ncn(C3CCCC3)c2ncn1Cc1ccccc1` was run?
Its survivor count is 0 of 6.

And the survivor count (T/C endpoint: mean survival time, dose: 200.0 mg/kg/injection, schedule: Q01DX001 (ip), vehicle: carboxymethylcellulose (CMC))?
Its survivor count is 0 of 6.

What about the survivor count (T/C endpoint: mean survival time, dose: 400.0 mg/kg/injection, schedule: Q01DX001 (ip), vehicle: carboxymethylcellulose (CMC)) of the same compound?
The survivor count was 0 of 6.

For `c1cc2c(c(N3CCNCC3)c1)CCCC2`, which survivor count [2] is on record?
Its survivor count is 2 of 6.

What does the source list for `OC1(c2ccccc2)CCN(C/C=C/c2ccccc2)CC1`?
survivor count [3]: 3 of 6; survivor count [2]: 0 of 6

For `CCCCCC#CC1OC12CCCCC2` (stereo not given), which survivor count (T/C endpoint: mean survival time, dose: 400.0 mg/kg/injection, schedule: Q01DX009 (sc), vehicle: saline with Tween-80) is on record?
The survivor count was 4 of 6.

How did the survivor count (T/C endpoint: mean survival time, dose: 50.0 mg/kg/injection, schedule: Q01DX009 (ip), vehicle: water) turn out when `COc1ccc(OC)c2c1CCC(O)(C#N)C2` (stereo not given) was run?
The survivor count was 0 of 6.

And the survivor count (T/C endpoint: mean survival time, dose: 100.0 mg/kg/injection, schedule: Q01DX009 (ip), vehicle: water)?
The survivor count was 0 of 6.

What about the survivor count (T/C endpoint: mean survival time, dose: 200.0 mg/kg/injection, schedule: Q01DX009 (ip), vehicle: water) of the same compound?
Its survivor count is 0 of 6.

`Nc1nc2c(ncn2-c2cccc3ccccc23)c(=O)[nH]1` was tested. Which survivor count [1] did it give?
The survivor count was 6 of 6.

What about the survivor count [3] of the same compound?
The survivor count was 6 of 6.

And the survivor count [2]?
The survivor count was 6 of 6.

For `CSc1nc(C)cc(N)n1`, which survivor count [4] is on record?
Its survivor count is 3 of 6.

How did the survivor count (T/C endpoint: mean survival time, dose: 50.0 mg/kg/injection, schedule: Q01DX005 (ip), vehicle: water) turn out when `O=C1C=C(C2OC(CI)C(O)C2O)C(=O)N1` (stereo not given) was run?
The survivor count was 0 of 6.

What about the survivor count (T/C endpoint: mean survival time, dose: 100.0 mg/kg/injection, schedule: Q01DX005 (ip), vehicle: water) of the same compound?
Its survivor count is 0 of 6.

And the survivor count (T/C endpoint: mean survival time, dose: 200.0 mg/kg/injection, schedule: Q01DX005 (ip), vehicle: water)?
The survivor count was 0 of 6.

With `O=C(c1ccccc1)C1C(c2ccccc2)OP(c2ccccc2)(c2ccccc2)(c2ccccc2)C1c1ccccc1` (stereo not given) as the compound, how does the survivor count (T/C endpoint: mean survival time, dose: 100.0 mg/kg/injection, schedule: Q04DX003 (ip), vehicle: saline with Tween-80) read?
The survivor count was 1 of 6.

And the survivor count (T/C endpoint: mean survival time, dose: 200.0 mg/kg/injection, schedule: Q04DX003 (ip), vehicle: saline with Tween-80)?
Its survivor count is 0 of 6.

What about the survivor count [4] of the same compound?
The survivor count was 0 of 6.

What does the source list for `COc1ccc2nc3c(Cl)cccc3c(Cl)c2c1`?
survivor count [1]: 6 of 6; survivor count [2]: 6 of 6

For `O=C(CCN1CC1)Nc1ccc(NC(=O)CCN2CC2)cc1`, which T/C (T/C endpoint: mean survival time, dose: 10.0 mg/kg/injection, schedule: Q04DX003 (ip), vehicle: Klucel (hydroxypropylcellulose) (HPC)) is on record?
Its T/C is 137 % of control.

What about the T/C (T/C endpoint: mean survival time, dose: 20.0 mg/kg/injection, schedule: Q04DX003 (ip), vehicle: Klucel (hydroxypropylcellulose) (HPC)) of the same compound?
Its T/C is 135 % of control.

And the T/C (T/C endpoint: mean survival time, dose: 40.0 mg/kg/injection, schedule: Q04DX003 (ip), vehicle: Klucel (hydroxypropylcellulose) (HPC))?
Its T/C is 147 % of control.
